Here are results for 34 compounds from PubChem BioAssay AID651900 (Broad Institute, 2012).

The list shows a part of the results. Shown are side measurements of this screen, not its main read-out; they come without a call.

The nature of the experiment: cytotoxicity in NIH3T3 fibroblasts, dose response, cytotoxicity control, cell-based, plate reader, cherry-pick, two tests (AID 651900). Particulars: test 2 concentration series, at 26 µM.
`Clc1ccc(CSc2nnc(-c3cccnc3)o2)cc1`: the activity is -2.62%. Turning to `COc1cccc(NC(=O)CCC2CCN(C(=O)c3ccc(C(C)=O)s3)CC2)c1`, the activity was -0.165%. For `COc1cc(/C=C/C(=O)Nc2cccnc2)cc(OC)c1OC`, the activity is -2.55%. Turning to `NC(=O)c1ccc(Oc2cccc3cccnc23)c([N+](=O)[O-])c1`, the activity was 6.68%. For the compound `CC1(C(=O)NCc2ccc(F)c(F)c2)Cc2c(-c3cccc(C(N)=O)c3)ccnc2O1` (centres undefined), the activity was -1.31%.

Regarding `COc1ccc(C(=O)Nc2cccc(NC(=O)c3cccs3)c2)cc1`, the activity was -2.49%.

`Cn1nnc2cc(C(=O)Nc3cccnc3)ccc21`: the activity came to 2.21%. Consider `CC(=O)c1ccc(NC(=O)C2CC(=O)N(Cc3ccccc3)C2)cc1` (centres undefined), for which the activity is -12.7%.

Regarding `C[C@@H](C(=O)N1CCN(Cc2ccc3c(c2)OCO3)CC1)n1nnc2ccccc2c1=O`, the activity is -2.25%. On to `Cc1c(NC(=O)c2cc3ccccc3o2)cccc1-n1cnnn1`, for which the activity came out at 3.44%. For the compound `C/C=C(/C)C(=O)OC(C)(C)[C@@H]1Cc2c(ccc3ccc(=O)oc23)O1`, the activity was found to be 2.9%.

On to `O=C(CSc1nc2c(c(=O)n1-c1ccccc1)SCC2)N1CCN(c2ccccc2)CC1`, for which the activity was -4.99%. The same measure for `COC(=O)c1c(C(=O)OC)c(-c2cccc(F)c2)n2c1CS(=O)C2` (centres undefined): 8.17%; for `Cc1nc2nc(SCC(=O)NCc3ccco3)nn2c(C)c1Cc1c(F)cccc1Cl`: -1.14%; for `CC(=O)c1ccc(C(=O)N2CCCC(Nc3ccccc3)C2)s1` (centres undefined): -0.636%. For `Cc1cccc(-c2nnc(SCC#N)n2-c2ccccc2)c1`, the activity was -4.8%. Take `O=C(CSc1nc2cc(C(=O)O)ccc2c(=O)n1-c1ccc(F)cc1)Nc1ccc(F)c(F)c1F`: the activity was -12.1%. The same measure for `Nn1c(SCc2nc3ccccc3[nH]2)nnc1-c1cccnc1`: 0.63%; for `COc1ccc(CCN(C)c2ccc(C(N)=O)cc2[N+](=O)[O-])cc1OC`: -9.16%. Consider `CC1CN(C(=O)Nc2ccc3snnc3c2)c2ccccc21` (centres undefined), for which the activity was -1.06%. For the compound `COc1cc2c(cc1NC(=O)c1cccnc1)CCCC2`, the activity is -8.06%. Take `Cc1cc(C)n2nc(C(=O)Nc3cccnc3)nc2n1`: the activity was determined as 3.28%. Take `O=C(CSc1nncs1)N1c2ccccc2Sc2ccccc21`: the activity is -2.67%. The same measure for `COc1cc(C(=O)Nc2cccnc2)cc(OC)c1OC`: -9.69%; for `O=C(C1CCCN(S(=O)(=O)c2cccnc2)C1)N1CCn2c1nc1ccccc12` (centres undefined): 2.3%; for `CN1CCCC1CCOC(C)(c1ccccc1)c1ccc(Cl)cc1` (centres undefined): -31.8%. As for `CC1Cc2nc(SCC(=O)N3CCOCC3)n(-c3ccccc3)c(=O)c2S1` (centres undefined), the activity is -1.85%.

In the case of `COc1ccc(-c2ccc3c(c2)C2CC3CCN2)cc1` (centres undefined), the activity was -7.85%. Turning to `O=C(O)CCS(=O)(=O)c1nc(-c2cccs2)cc(C(F)(F)F)n1`, the activity is -1.62%.

Consider `Cc1cc(NC(=O)CN(C)S(=O)(=O)c2cnc[nH]2)ccc1Br`, for which the activity is -4.06%. Consider `CC(Oc1cc2oc(=O)c3c(c2cc1Cl)CCC3)C(=O)NCc1cccnc1` (centres undefined), for which the activity was -5.26%.

For the compound `Cc1cc(C(=O)NC2CC(C)(C)Cc3c2cnn3-c2cccc(F)c2)nn1C` (centres undefined), the activity was -8.34%. As to `CCOC(=O)c1ccc(N2C(=O)c3n[nH]c(C)c3C2c2ccc(OC)c(OC)c2)cc1` (centres undefined), the activity was found to be 0.626%. As to `CC(=O)c1ccc(C(=O)N2CCCC(C(=O)c3ccc(Cl)cc3)C2)s1` (centres undefined), the activity was -2.09%.
